Laboratory results from PubChem BioAssay AID2662 (National Center for Advancing Translational Sciences (NCATS), 2010).
Among all 290,000 compounds or so, about 110 (0.038%) were called active. Inconclusive results, whose numbers are uncertain, are shown with a selection of clear calls. Calls follow the shape of the dose curve; as a rule, active = well fitted inhibition curve with a large enough effect in the polarisation, with a control signal flat (not every such curve was filed as active); inconclusive = small, poorly fitted or top-dose-only effect, or effect the other way, or a change in a side signal; inactive = no such curve, though single readings can be large or run the other way; the % refers to the polarisation. Where the call is inconclusive, the potency comes from a doubtful curve fit. A note “side channel” means that the fit belongs to a control or component signal, not to the main read-out.

Protein sequences, listed by entry. Tags and fused reporters are not part of them.
UniProt Q03164, whole entry, looked up: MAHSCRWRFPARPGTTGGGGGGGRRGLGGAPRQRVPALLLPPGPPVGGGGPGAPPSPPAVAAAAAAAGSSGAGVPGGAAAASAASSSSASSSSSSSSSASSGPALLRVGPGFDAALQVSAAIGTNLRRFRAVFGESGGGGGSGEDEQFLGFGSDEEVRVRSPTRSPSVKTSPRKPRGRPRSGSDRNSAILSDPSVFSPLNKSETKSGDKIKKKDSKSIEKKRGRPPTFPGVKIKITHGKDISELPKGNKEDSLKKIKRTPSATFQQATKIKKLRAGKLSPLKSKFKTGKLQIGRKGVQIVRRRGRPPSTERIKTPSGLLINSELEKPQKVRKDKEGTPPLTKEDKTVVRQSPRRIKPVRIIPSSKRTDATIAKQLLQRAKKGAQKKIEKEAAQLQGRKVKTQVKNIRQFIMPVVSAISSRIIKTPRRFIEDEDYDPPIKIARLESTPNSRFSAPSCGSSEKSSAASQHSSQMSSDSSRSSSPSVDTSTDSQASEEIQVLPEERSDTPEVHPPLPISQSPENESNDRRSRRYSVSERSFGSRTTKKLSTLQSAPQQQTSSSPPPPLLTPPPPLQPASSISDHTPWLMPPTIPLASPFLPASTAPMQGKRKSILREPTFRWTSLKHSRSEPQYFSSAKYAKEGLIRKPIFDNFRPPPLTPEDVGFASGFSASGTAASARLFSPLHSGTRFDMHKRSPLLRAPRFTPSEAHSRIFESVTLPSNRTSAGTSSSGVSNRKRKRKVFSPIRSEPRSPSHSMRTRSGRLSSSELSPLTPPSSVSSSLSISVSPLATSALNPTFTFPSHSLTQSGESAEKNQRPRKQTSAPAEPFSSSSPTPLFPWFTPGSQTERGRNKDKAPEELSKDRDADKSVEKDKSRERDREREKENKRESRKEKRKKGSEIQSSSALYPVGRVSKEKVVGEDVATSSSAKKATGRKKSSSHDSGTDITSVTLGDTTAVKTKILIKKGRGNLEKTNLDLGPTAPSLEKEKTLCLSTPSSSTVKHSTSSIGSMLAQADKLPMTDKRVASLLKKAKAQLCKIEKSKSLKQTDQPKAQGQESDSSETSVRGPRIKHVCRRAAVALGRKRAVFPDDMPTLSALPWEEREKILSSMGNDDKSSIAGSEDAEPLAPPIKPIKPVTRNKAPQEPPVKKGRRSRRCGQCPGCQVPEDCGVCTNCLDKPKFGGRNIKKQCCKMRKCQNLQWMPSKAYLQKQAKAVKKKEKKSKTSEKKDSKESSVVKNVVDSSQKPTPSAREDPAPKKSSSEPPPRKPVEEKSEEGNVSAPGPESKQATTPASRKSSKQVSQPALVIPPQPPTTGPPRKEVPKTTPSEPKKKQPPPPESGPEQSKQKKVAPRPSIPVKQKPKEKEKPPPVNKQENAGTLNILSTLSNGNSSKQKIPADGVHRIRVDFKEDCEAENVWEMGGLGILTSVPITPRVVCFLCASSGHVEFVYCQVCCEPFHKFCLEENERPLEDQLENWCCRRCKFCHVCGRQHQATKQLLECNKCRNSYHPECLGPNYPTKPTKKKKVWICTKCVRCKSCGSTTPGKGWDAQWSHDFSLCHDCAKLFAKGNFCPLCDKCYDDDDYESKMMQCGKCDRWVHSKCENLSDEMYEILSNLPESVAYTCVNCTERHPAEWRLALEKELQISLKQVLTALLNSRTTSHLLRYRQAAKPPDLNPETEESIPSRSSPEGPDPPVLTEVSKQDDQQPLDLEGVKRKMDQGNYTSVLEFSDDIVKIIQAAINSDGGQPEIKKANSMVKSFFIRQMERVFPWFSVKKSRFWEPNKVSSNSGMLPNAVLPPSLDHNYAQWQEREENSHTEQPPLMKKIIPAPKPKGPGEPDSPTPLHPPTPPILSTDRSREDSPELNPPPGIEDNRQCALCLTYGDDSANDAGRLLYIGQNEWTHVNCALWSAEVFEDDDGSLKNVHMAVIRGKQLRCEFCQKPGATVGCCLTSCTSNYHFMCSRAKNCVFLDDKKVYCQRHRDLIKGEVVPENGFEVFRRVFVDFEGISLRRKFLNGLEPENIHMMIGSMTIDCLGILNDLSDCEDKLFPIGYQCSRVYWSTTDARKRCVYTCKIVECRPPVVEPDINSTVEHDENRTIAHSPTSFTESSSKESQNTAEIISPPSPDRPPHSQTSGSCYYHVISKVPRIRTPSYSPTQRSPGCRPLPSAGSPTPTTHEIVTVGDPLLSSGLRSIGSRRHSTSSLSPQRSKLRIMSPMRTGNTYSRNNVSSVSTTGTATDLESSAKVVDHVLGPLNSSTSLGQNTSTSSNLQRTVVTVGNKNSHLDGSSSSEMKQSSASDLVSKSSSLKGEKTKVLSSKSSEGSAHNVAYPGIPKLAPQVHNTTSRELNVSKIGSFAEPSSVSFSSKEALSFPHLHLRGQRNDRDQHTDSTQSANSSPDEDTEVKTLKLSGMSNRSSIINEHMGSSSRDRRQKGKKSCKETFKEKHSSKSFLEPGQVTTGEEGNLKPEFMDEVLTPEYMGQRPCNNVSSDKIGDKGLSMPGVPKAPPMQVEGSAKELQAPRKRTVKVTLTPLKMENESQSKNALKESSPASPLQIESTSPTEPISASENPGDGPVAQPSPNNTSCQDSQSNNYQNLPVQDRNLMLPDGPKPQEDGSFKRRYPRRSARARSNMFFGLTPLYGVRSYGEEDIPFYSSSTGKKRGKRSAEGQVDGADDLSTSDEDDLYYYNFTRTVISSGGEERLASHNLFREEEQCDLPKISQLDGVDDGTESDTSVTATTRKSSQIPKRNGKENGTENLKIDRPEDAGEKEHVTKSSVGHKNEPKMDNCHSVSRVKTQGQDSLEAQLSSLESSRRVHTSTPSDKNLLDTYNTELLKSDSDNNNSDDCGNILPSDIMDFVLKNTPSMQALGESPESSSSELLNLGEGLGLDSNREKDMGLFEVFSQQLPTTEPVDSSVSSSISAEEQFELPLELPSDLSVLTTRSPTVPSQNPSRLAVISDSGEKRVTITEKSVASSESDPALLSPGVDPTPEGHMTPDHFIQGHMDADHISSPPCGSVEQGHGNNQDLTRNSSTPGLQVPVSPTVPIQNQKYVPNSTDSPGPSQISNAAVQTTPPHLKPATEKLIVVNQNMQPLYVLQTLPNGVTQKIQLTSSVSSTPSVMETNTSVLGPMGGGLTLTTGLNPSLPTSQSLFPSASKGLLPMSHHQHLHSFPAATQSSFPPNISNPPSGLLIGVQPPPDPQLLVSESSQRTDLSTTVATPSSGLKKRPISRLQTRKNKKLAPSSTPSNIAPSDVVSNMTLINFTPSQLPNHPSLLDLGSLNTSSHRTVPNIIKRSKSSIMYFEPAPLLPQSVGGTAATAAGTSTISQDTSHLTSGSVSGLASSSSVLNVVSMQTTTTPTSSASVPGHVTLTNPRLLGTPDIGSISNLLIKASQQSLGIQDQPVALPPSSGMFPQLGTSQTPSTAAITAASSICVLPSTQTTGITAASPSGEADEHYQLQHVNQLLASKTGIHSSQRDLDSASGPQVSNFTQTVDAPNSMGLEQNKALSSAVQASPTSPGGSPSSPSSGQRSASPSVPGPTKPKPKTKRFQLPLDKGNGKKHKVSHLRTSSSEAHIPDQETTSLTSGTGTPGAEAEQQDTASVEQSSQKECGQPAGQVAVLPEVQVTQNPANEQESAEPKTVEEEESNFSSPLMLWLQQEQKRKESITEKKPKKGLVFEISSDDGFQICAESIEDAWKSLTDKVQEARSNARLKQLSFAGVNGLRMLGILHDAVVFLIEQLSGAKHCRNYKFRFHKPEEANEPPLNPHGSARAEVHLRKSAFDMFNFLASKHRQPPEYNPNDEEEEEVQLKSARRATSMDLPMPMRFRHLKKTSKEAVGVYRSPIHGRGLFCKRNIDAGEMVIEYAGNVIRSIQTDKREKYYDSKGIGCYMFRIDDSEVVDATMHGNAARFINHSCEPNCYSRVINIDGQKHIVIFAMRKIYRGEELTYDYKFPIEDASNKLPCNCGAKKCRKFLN

Target: Histone-lysine N-methyltransferase 2A (Homo sapiens) (UniProt Q03164)
Experiment: qHTS Fluorescence Polarization Assay for Inhibitors of MLL CXXC domain - DNA interaction
Conditions: MLL-CXXC / FITC-HOXA9 DNA fluorescence polarization; series mostly up to 115 µM
In short: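 Steps: dispense CXXC domain solution (7 uM) → pin compounds or unlabeled HOX-A9 DNA control → 5 min ambient → add FLSN-HOX-A9 solution (50 nM) → spin → 30 min ambient → fluorescence polarization. Tris pH 7.5/NaCl/DTT/BSA buffer.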
Potency is read from the fitted curve at half-maximal effect.

SMILES | Potency
COc1ccc(/C=C2\C(=O)ON=C2c2ccccc2)cc1OC | inconclusive: 17.8 µM [inhibitor, partial curve]
O=C(O)c1ccc(S(=O)(=O)N(Cl)Cl)cc1 | inconclusive: 12.6 µM [fluorescent, side channel, full curve, poor fit]
CS(=O)(=O)Nc1ccc2c(c1)ncn2CCc1ccccc1 | inconclusive: 31.6 µM [fluorescent, side channel, partial curve]
O=C(O)CSc1cc(NS(=O)(=O)c2cccc([N+](=O)[O-])c2)c2ccccc2c1O | inconclusive: 89.1 µM [inhibitor, single point]
COc1ccc(C(CNC(=O)C2CC2)N(C)C)cc1 (stereo not drawn) | inconclusive: 1 µM [inhibitor, full curve, poor fit]
N#Cc1cc(-c2ccccc2)[nH]c1-c1nccc2ccccc12 | inconclusive: 70.8 µM [fluorescent, side channel, single point]
O=C1N/C(=C/c2cccn2-c2ccccc2)C(=O)N1Cc1ccc(F)cc1 | inactive
O=C(Nc1nncs1)c1cccc(S(=O)(=O)N2CCCC2)c1 | inactive
O=C(Oc1ccccc1N1CCOCC1)c1sccc1Br | inconclusive: 112 µM [inhibitor, partial curve, poor fit]
O=c1c(-c2ccccc2)coc2c(CN3CCCC3)c(O)ccc12 | inactive
O=c1oc2cc([N+](=O)[O-])ccc2nc1/C=C(O)/C=C/c1ccccc1 | inconclusive: 8.91 µM [inhibitor, single point]
O=c1[nH]c2c(s1)C=Nc1ccccc1N2 | inconclusive: 35.5 µM [fluorescent, side channel, single point]
COc1ccc(C2C(CC(=O)O)=C(O)C(=O)N2c2ccccc2)cc1 (stereo not drawn) | inconclusive: 31.6 µM [inhibitor, single point]
C=CCOc1cccc(C2C(C(=O)c3ccc(C)o3)=C(O)C(=O)N2c2nccs2)c1 (stereo not drawn) | inconclusive: 89.1 µM [inhibitor, partial curve, poor fit]
CCn1c(CSc2nc3ccccc3[nH]2)nc2cc(C(=O)O)ccc21 | inconclusive: 31.6 µM [fluorescent, side channel, partial curve]
O=S(=O)(c1ccc(NC(=S)N/N=C/c2ccc(N3CCOCC3)cc2)cc1)N1CCOCC1 | inactive
Cc1cc(/C=N/Nc2ccc([N+](=O)[O-])cn2)c(C)n1-c1ccc(C(=O)O)cc1 | inactive
O=C(Nc1ccnn1C1CCN(Cc2ccc(Cl)cc2)CC1)C1CCCC1 | inactive
Cc1ccccc1COc1ccc(-c2nn[nH]n2)cc1 | inconclusive: 89.1 µM [inhibitor, single point]
COc1ccc(/C(C)=N/NC(=S)NCCc2ccccc2)cc1 | inconclusive: 7.08 µM [fluorescent, side channel, single point]
Nc1ncc(Br)cc1Br | inconclusive: 14.1 µM [inhibitor, single point]

Laid out differently: entries from further up.
O=c1oc2cc([N+](=O)[O-])ccc2nc1/C=C(O)/C=C/c1ccccc1
  Potency: inconclusive: 8.91 µM [inhibitor, single point]
O=c1[nH]c2c(s1)C=Nc1ccccc1N2
  Potency: inconclusive: 35.5 µM [fluorescent, side channel, single point]

(more compounds)

SMILES | Potency
Cc1cccc(NC(=S)NC(=O)c2cc(-c3ccccc3)nc3ccccc23)c1 | inactive
COc1ccccc1NS(=O)(=O)c1ccc(NC(=O)c2[nH]nc(OC)c2[N+](=O)[O-])cc1 | inconclusive: 10 µM [fluorescent, side channel, partial curve]
O=C(O)c1cnc(-c2ccccc2)nc1Sc1ccccc1Cl | inconclusive: 56.2 µM [inhibitor, single point]
COc1ccc(C2C=C(c3ccc(Br)cc3)Nc3nc(NS(C)(=O)=O)nn32)cc1 (stereo not drawn) | inconclusive: 35.5 µM [fluorescent, side channel, partial curve]
Clc1ccccc1CN1CCN(CCCc2ccccc2)CC1 | inconclusive: 8.91 µM [fluorescent, side channel, single point]
CC(C)(C)c1ccc(NC(=O)CSc2nnc(-c3n[nH]c4ccccc34)o2)cc1 | inactive
CSc1ccc2[nH]c(=O)cc(C)c2c1 | inactive
O=[N+]([O-])c1cc(S(=O)(=O)N2CCCC2)ccc1N/N=C1/CCCc2ccccc21 | inconclusive: 14.1 µM [fluorescent, side channel, single point]
CC(=O)Nc1ccc(S(=O)(=O)N2CCC(N3CCCC3)CC2)cc1 | inactive
O=C(O)c1ccccc1C(=O)Nc1ccc(Nc2ccc([N+](=O)[O-])cc2[N+](=O)[O-])cc1 | inconclusive: 14.1 µM [inhibitor, single point]
COCCNC(=O)c1ccc(NS(=O)(=O)c2ccc3[nH]c(=O)[nH]c3c2)cc1 | inconclusive: 10 µM [inhibitor, partial curve]
O=C(O)COc1ccccc1/C=N/NC(=O)c1cc(-c2ccc(Cl)cc2)nc2ccccc12 | inactive
CCOc1ccccc1NC(=O)Nc1ccncc1 | inconclusive: 10 µM [quencher, side channel, single point]
Cc1ccc(S(=O)(=O)N2CCOCC2)cc1C(=O)Nc1nc(-c2cccnc2)cs1 | inactive
O=C(c1ccc(F)cc1F)N1CCN(c2n[nH]c(=O)[nH]c2=O)CC1 | inconclusive: 10 µM [fluorescent, side channel, full curve]
O=C(Nc1ccc(NC(=O)c2ccccc2)nc1)c1ccncc1 | inconclusive: 35.5 µM [fluorescent, side channel, partial curve]
CCCn1nc(NC(=O)c2cccs2)c2cc3cc(C)ccc3nc21 | inconclusive: 35.5 µM [quencher, side channel, single point]
O=C(O)c1ccccc1Nc1cc(Cl)c2nonc2c1[N+](=O)[O-] | inconclusive: 31.6 µM [inhibitor, single point]
CS(=O)(=O)c1nc(-c2ccccc2)cc(C(F)(F)F)n1 | inconclusive: 20 µM [quencher, side channel, partial curve]
O=C(NC(=O)c1c(F)cccc1F)Nc1ccccc1SC(F)F | inactive
C=CC[n+]1ccc(/C=C2\C=Cc3cc(C)ccc3N2CC)c2ccccc21 | inconclusive: 25.1 µM [quencher, side channel, partial curve]

SMILES | Potency
Cc1oc2c(CN3CCCCC3C)c(O)ccc2c(=O)c1-c1ccccc1 (stereo not drawn) | inconclusive: 35.5 µM [fluorescent, side channel, partial curve]
CCOc1cc(CNn2cn[nH]c2=S)cc(Cl)c1OCc1ccccc1F | inconclusive: 35.5 µM [inhibitor, single point]
CCCCOC(=O)c1ccc(NC(=O)C(=O)CC(=O)c2ccc(OC)cc2)cc1 | inconclusive: 63.1 µM [fluorescent, side channel, single point]
O=C(O)c1cccc(-n2cccc2C=C2C(=O)c3ccccc3C2=O)c1 | inconclusive: 25.1 µM [inhibitor, partial curve]
CCO[C@@H]1OC(C(=O)NCc2ccccc2)=C[C@H](c2cn(C(C)=O)c3ccccc23)[C@H]1CCCO | inconclusive: 89.1 µM [inhibitor, single point]
COC(=O)c1ccccc1NC(=O)C(CCS(C)(=O)=O)NC(C)=O (stereo not drawn) | inconclusive: 70.8 µM [fluorescent, side channel, single point]
CC(Nc1cc(N2CCN(S(C)(=O)=O)CC2)ccc1[N+](=O)[O-])c1ccccc1 (stereo not drawn) | inconclusive: 8.91 µM [fluorescent, side channel, single point]
CC1(C)c2ccccc2-c2nc3ccccc3cc2C1O (stereo not drawn) | inconclusive: 63.1 µM [fluorescent, side channel, single point]
O=C(NCc1nc2ccccc2[nH]1)C1=C[C@@H](C2CC2)C[C@@H](OCc2ccc(CO)cc2)O1 | inconclusive: 89.1 µM [fluorescent, side channel, single point]
COc1ccc(NC(=O)CSc2nccn2Cc2ccco2)c(OC)c1 | inconclusive: 8.91 µM [fluorescent, side channel, single point]
O=C(NCCCO)Nc1ccc2nc(-c3ccco3)c(-c3ccco3)nc2c1 | inconclusive: 31.6 µM [fluorescent, side channel, single point]
N#Cc1c(Cl)nc(-c2cccnc2)nc1-c1ccccc1 | inconclusive: 35.5 µM [fluorescent, side channel, single point]
NC(=O)c1ccc(NCCc2ccccc2)c([N+](=O)[O-])c1 | inconclusive: 8.91 µM [inhibitor, single point]
O=C1CCCC(O)=C1N=Nc1ccc2c(c1)OCO2 | inactive
COc1ccc(C(=O)n2cc(C(=O)c3cc(C)ccc3O)cn2)cc1OC | inconclusive: 112 µM [fluorescent, side channel, partial curve, poor fit]
O=C(Nc1cccc2ccccc12)N1CCc2ccccc2C1 | inactive
COc1cccc(/C=C2/Sc3ccc(C(=O)NCCN4CCCC4)cc3NC2=O)c1 | inconclusive: 31.6 µM [quencher, partial curve]
NC(=O)c1ccc(NC(=O)CCC(=O)c2cccs2)cc1 | inactive
Cc1cc(N2CCN(C)CC2)nc2ccc(NC(=O)CCC(=O)NCCCOC(C)C)cc12 | inconclusive: 56.2 µM [inhibitor, single point]
Cc1nnc(SC(C)C(=O)NC2CCCc3ccccc32)n1-c1ccccc1 (stereo not drawn) | inconclusive: 14.1 µM [inhibitor, single point]
C=CCNC(=O)C(C#N)c1nc2ccccc2nc1N1CCN(Cc2ccccc2)CC1 (stereo not drawn) | inconclusive: 56.2 µM [fluorescent, side channel, single point]

Among those listed so far, these contain a furan ring, fused or not:
SMILES | Potency
C=CCOc1cccc(C2C(C(=O)c3ccc(C)o3)=C(O)C(=O)N2c2nccs2)c1 (stereo not drawn) | inconclusive: 89.1 µM [inhibitor, partial curve, poor fit]
COc1ccc(NC(=O)CSc2nccn2Cc2ccco2)c(OC)c1 | inconclusive: 8.91 µM [fluorescent, side channel, single point]
O=C(NCCCO)Nc1ccc2nc(-c3ccco3)c(-c3ccco3)nc2c1 | inconclusive: 31.6 µM [fluorescent, side channel, single point]
